Test results published in the supplement of paper PMC7666118.
The other results are listed elsewhere or left out.

The chains behind the UniProt entries cited, without tags or fusion partners. Where a name states a change or a piece, a line headed by the entry shows the natural chain unless it says otherwise.
UniProt Q9BRS2: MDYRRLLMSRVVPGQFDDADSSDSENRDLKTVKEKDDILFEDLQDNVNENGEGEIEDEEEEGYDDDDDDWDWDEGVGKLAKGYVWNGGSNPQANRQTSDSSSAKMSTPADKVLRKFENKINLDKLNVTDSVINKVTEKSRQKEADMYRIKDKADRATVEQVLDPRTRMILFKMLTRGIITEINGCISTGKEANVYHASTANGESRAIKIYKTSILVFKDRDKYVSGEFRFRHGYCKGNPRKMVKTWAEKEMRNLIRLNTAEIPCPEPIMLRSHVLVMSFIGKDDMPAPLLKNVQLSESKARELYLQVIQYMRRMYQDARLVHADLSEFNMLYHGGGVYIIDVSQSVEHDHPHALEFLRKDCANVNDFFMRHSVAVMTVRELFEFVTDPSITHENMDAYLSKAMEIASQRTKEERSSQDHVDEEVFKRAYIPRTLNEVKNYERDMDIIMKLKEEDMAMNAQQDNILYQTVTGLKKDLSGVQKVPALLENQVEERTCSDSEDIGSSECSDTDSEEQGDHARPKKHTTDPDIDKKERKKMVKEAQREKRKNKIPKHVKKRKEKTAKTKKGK
UniProt Q96PM5: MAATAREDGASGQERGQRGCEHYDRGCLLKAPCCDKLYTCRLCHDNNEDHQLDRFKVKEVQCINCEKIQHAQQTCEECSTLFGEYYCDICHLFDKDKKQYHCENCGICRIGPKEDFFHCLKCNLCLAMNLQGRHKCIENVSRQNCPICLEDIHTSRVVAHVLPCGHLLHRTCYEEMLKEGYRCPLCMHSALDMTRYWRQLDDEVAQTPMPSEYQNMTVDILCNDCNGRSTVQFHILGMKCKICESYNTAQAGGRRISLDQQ
UniProt Q9UPN6: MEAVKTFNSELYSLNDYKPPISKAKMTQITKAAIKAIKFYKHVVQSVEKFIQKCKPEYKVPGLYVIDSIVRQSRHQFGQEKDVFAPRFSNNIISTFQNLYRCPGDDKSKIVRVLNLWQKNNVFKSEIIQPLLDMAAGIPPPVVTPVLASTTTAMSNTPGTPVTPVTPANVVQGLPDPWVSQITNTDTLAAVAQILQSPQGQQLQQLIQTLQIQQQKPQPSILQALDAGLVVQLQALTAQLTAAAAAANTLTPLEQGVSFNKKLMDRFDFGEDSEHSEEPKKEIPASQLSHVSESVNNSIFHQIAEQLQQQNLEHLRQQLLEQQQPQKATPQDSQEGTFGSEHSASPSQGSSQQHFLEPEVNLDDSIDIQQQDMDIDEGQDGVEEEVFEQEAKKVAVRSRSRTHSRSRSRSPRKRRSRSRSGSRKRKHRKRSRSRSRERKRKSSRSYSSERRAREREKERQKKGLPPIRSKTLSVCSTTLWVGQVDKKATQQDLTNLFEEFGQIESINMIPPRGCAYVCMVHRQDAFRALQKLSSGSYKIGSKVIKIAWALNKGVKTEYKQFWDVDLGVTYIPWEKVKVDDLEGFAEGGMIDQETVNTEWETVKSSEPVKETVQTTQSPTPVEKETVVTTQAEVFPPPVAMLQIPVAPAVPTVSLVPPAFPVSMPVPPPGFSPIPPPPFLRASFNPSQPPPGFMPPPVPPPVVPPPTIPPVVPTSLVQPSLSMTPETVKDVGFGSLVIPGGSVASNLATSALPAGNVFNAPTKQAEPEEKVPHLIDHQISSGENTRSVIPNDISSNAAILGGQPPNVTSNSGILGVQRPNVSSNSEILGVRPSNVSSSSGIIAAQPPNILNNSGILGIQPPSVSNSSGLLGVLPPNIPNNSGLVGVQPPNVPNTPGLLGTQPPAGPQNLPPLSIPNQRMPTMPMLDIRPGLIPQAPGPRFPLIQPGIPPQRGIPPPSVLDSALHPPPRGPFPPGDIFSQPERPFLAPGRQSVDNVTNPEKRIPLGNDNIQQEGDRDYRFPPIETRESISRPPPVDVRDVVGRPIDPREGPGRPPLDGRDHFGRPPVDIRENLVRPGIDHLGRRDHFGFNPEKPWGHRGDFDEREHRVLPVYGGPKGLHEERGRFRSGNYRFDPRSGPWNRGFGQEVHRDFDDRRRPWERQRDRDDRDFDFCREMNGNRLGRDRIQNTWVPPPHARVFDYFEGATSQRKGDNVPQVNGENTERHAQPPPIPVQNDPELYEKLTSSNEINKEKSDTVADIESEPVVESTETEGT
UniProt O43502: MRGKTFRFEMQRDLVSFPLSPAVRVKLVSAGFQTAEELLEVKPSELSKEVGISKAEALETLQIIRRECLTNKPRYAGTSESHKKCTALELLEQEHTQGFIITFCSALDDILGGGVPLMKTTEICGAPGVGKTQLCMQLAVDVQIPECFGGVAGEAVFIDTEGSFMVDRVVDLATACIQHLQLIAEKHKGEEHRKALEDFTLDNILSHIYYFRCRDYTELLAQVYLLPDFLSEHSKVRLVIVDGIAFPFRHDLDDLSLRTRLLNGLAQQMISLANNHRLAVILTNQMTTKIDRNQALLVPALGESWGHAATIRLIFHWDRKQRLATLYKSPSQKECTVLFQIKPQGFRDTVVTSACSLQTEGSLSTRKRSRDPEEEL
UniProt Q96E17: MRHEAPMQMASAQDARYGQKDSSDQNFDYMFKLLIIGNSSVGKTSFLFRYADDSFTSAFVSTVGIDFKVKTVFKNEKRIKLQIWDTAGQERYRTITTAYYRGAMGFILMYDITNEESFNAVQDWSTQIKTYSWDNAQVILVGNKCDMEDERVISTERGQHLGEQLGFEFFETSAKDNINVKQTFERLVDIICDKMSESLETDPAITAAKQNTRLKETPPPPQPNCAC
UniProt Q9NP72: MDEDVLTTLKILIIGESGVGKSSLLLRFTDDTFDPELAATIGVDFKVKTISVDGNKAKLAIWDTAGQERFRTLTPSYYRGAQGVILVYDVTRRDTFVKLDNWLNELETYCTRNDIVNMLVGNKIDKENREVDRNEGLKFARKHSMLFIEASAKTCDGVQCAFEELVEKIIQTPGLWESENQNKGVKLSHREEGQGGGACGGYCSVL
UniProt Q9H6Z4: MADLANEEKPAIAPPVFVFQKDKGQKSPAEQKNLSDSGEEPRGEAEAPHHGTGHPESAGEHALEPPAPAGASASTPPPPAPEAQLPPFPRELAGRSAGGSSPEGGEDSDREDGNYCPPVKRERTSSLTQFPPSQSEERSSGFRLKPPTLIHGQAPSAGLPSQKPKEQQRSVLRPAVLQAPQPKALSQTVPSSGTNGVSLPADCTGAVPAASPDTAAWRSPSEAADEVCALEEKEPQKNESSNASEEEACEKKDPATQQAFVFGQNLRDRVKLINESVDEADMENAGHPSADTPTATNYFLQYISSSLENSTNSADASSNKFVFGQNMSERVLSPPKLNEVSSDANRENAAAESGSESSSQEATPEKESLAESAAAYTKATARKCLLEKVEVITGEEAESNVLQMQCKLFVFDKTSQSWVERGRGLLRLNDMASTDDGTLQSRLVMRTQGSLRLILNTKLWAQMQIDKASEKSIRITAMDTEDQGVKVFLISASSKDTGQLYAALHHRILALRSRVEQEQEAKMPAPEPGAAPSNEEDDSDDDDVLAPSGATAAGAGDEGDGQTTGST
UniProt Q15274: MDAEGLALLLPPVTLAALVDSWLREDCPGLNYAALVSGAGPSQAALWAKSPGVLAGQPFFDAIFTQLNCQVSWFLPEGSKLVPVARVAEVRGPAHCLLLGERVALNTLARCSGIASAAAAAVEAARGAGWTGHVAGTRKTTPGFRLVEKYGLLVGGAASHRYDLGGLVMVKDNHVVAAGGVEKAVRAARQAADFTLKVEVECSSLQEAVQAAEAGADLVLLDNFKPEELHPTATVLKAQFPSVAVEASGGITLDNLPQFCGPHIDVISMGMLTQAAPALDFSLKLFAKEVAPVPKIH
UniProt O00391: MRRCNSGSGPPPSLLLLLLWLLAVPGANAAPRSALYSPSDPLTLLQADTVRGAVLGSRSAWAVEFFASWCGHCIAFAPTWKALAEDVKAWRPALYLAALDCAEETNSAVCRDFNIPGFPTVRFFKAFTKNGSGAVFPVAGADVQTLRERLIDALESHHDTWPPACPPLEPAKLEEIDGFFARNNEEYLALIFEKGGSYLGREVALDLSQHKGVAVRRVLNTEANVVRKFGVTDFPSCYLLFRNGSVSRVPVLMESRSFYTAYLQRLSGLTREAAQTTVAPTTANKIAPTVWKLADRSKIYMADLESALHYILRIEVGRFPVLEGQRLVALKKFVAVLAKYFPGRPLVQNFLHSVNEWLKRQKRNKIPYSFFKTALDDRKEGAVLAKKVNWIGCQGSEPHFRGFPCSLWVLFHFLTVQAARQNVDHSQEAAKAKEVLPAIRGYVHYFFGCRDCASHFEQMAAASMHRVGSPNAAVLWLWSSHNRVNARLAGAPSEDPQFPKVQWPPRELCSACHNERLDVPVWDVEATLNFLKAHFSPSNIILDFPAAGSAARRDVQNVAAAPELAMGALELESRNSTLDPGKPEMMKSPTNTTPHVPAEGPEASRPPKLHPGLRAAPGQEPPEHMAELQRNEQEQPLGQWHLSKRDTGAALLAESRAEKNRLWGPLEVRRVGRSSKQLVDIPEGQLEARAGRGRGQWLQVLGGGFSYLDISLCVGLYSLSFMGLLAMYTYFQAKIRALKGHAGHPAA
UniProt Q5HYI8: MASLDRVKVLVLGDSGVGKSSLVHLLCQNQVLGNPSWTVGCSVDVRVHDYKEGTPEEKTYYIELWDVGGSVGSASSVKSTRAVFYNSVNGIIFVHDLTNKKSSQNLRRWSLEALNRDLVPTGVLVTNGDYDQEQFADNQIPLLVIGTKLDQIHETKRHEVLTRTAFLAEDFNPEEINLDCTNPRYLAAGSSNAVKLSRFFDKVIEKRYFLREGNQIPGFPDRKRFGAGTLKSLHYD
UniProt P23469: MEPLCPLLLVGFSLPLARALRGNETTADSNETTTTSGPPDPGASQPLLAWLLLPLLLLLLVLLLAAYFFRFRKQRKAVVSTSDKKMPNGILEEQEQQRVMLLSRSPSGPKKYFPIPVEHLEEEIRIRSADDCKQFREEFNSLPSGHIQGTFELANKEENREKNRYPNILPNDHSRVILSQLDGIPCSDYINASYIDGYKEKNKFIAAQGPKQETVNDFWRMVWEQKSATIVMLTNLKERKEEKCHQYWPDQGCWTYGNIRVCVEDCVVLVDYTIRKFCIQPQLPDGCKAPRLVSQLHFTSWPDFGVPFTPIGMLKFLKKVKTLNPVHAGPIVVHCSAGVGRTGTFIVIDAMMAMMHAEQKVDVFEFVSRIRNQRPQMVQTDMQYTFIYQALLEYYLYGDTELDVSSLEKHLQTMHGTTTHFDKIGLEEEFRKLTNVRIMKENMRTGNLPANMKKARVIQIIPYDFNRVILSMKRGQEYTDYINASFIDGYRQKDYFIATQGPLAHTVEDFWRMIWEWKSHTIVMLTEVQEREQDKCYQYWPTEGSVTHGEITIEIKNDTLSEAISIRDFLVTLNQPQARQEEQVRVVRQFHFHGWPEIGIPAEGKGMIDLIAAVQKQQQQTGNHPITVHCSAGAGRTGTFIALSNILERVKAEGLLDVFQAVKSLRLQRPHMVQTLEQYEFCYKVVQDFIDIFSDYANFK
UniProt Q8N0Z8: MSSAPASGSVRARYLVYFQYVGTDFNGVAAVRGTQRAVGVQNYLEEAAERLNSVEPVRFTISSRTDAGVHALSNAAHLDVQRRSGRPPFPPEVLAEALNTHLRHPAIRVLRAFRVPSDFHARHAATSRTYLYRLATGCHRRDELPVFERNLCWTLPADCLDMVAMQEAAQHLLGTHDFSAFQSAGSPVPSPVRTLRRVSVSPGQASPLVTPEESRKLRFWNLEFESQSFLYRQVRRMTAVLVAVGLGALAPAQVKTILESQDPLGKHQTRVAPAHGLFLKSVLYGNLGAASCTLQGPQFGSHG
UniProt Q9BZE2: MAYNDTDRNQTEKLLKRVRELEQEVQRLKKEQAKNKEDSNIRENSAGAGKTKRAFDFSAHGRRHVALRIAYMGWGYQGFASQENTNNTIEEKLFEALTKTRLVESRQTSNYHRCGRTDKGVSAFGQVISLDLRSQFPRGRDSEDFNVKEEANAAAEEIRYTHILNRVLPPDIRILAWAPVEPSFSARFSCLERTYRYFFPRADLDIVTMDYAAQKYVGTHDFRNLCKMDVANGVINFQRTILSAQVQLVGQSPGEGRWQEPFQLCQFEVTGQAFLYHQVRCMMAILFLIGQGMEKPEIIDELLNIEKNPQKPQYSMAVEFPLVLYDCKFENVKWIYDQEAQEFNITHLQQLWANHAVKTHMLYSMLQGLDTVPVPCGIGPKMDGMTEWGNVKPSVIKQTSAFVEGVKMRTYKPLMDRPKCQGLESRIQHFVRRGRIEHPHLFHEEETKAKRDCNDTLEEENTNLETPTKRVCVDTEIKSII

The targets below were run with COc1ccc(Cn2ccc3cc(C)c(C(=O)NO)cc32)cc1 (assay: dose-dependent thermal stabilisation call (2D-TPP, DLPTP, 10% FDR) (binary (1 = stabilised)); higher = stabilised by the compound). Conditions: system: HL-60 intact cells; concentration range 0.04-10 µM.
Description: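 2D thermal proteome profiling in intact HL-60 cells treated with BRD-3811 (0, 0.04, 0.29, 2, 10 uM) for 90 min at 37 C, then heated 3 min at one of 12 temperatures (42-63.9 C). Soluble protein was quantified by TMT10 MS. The value is the DLPTP call of the paper: dose-dependent thermal stabilisation over all temperatures at 10% FDR (F-test of a dose-response against a flat model); one experiment, one call per tested protein.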

Target	dose-dependent thermal stabilisation call
RIOK1 (UniProt Q9BRS2)	inactive: 0
RABL5 (UniProt Q9H7X7)	inactive: 0
RHOF (UniProt Q9HBH0)	inactive: 0
RIOK3 (UniProt O14730)	inactive: 0
RNF114 (UniProt Q9Y508)	inactive: 0
RAP2A (UniProt P10114)	inactive: 0
PXK (UniProt Q7Z7A4)	inactive: 0
PTPRC (UniProt P08575)	inactive: 0
RHEB (UniProt Q15382)	inactive: 0
RCHY1 (UniProt Q96PM5)	inactive: 0
RBM16 (UniProt Q9UPN6)	inactive: 0
R3HDM1 (UniProt Q15032)	inactive: 0
RAC1 (UniProt P63000)	inactive: 0
RAD51C (UniProt O43502)	inactive: 0
RAB3C (UniProt Q96E17)	inactive: 0
RAPGEF6 (UniProt Q8TEU7)	inactive: 0
RELL1 (UniProt Q8IUW5)	inactive: 0
RAB18 (UniProt Q9NP72)	inactive: 0
RANBP3 (UniProt Q9H6Z4)	inactive: 0
RAB28 (UniProt P51157)	inactive: 0
QPRT (UniProt Q15274)	inactive: 0
QSOX1 (UniProt O00391)	inactive: 0
RABL3 (UniProt Q5HYI8)	inactive: 0
PTPRE (UniProt P23469)	inactive: 0
RHOA (UniProt P61586)	inactive: 0
PUSL1 (UniProt Q8N0Z8)	inactive: 0
PUS3 (UniProt Q9BZE2)	inactive: 0

2 neighbouring records already listed, for reference:
Target	dose-dependent thermal stabilisation call
R3HDM1 (UniProt Q15032)	inactive: 0
RAC1 (UniProt P63000)	inactive: 0
